Experiment in all cases: co-IP; Pierce classic IP kit; protein extracts of PC3 cells (transfected with BKCa or vector, or infected with BK-shRNA or SC-shRNA; vitronectin stimulation in Supplementary Figure 4); immune complexes analysed by western blot; beads without protein input as control
(A western blot detects proteins with antibodies after separation by electrophoresis.)

By UniProt entry, the sequences of proteins in these tests, tags left out. Residues count along the entry.
UniProt P18564, residues 22-788: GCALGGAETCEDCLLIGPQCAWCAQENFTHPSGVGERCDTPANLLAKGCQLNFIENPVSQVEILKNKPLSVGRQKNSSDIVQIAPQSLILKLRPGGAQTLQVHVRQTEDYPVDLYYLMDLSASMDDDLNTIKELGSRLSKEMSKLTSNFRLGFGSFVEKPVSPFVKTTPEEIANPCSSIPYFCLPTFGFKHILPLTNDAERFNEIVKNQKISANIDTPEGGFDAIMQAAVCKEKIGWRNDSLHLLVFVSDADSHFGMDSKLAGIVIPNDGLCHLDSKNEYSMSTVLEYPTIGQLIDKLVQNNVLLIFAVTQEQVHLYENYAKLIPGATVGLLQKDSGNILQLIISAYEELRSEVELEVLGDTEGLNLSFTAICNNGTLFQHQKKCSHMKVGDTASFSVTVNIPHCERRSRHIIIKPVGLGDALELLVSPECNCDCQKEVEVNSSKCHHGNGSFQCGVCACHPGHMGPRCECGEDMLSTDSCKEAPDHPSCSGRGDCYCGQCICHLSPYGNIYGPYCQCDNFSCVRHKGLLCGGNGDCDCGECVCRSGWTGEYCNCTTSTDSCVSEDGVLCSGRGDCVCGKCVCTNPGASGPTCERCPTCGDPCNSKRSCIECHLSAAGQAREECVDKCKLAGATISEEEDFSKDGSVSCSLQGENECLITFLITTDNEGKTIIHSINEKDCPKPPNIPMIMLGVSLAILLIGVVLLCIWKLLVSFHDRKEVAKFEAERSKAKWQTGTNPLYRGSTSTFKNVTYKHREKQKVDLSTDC
UniProt P05556: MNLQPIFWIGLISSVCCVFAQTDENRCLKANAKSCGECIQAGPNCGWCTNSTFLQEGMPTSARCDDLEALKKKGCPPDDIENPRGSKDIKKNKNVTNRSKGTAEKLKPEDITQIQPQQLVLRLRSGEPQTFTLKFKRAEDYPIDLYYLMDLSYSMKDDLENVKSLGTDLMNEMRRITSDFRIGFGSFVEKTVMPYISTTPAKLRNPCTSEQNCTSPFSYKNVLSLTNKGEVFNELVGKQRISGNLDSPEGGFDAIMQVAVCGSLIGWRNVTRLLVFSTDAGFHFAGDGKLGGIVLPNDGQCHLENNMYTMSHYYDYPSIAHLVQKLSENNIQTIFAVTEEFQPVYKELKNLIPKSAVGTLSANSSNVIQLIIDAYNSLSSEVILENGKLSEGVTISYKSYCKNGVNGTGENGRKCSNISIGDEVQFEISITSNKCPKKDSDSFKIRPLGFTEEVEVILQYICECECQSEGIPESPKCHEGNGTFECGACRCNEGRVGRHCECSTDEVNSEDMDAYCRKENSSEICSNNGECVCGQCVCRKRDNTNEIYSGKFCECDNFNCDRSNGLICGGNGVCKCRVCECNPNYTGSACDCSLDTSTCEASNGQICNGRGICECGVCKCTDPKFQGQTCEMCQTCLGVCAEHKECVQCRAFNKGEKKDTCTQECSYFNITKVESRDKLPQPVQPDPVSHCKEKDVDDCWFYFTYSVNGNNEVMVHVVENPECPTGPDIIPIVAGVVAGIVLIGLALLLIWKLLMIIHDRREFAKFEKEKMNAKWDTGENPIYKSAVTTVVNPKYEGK
UniProt Q12791: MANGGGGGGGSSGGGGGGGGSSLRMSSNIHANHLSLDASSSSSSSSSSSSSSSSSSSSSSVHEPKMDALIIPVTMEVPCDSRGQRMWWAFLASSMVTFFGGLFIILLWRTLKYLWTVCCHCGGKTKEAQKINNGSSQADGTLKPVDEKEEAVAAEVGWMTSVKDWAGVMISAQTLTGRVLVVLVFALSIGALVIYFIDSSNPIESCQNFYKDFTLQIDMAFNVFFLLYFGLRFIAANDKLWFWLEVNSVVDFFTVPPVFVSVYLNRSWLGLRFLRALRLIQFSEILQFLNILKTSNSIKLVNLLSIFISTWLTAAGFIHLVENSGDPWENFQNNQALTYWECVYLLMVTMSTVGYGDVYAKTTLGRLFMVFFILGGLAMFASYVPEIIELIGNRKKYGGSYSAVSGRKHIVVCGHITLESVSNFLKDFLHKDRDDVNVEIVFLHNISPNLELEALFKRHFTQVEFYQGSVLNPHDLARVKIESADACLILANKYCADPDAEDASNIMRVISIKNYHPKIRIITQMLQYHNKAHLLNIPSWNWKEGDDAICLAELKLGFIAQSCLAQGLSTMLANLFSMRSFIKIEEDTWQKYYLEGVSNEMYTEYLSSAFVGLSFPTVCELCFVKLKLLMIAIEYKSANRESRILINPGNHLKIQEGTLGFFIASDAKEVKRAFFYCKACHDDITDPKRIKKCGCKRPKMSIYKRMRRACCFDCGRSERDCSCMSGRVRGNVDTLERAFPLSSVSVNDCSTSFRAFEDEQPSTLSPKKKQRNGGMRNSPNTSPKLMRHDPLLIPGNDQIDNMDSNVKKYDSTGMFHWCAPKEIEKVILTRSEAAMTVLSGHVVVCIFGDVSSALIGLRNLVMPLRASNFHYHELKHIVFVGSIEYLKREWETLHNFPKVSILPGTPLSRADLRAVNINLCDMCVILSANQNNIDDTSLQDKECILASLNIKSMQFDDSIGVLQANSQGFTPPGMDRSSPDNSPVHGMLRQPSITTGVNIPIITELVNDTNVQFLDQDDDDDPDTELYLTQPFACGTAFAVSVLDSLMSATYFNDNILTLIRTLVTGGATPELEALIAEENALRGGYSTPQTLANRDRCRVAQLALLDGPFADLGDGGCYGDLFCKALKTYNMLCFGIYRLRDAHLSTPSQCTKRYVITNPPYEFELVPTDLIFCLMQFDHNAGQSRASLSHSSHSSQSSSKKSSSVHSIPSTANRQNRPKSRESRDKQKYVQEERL
UniProt Q05397: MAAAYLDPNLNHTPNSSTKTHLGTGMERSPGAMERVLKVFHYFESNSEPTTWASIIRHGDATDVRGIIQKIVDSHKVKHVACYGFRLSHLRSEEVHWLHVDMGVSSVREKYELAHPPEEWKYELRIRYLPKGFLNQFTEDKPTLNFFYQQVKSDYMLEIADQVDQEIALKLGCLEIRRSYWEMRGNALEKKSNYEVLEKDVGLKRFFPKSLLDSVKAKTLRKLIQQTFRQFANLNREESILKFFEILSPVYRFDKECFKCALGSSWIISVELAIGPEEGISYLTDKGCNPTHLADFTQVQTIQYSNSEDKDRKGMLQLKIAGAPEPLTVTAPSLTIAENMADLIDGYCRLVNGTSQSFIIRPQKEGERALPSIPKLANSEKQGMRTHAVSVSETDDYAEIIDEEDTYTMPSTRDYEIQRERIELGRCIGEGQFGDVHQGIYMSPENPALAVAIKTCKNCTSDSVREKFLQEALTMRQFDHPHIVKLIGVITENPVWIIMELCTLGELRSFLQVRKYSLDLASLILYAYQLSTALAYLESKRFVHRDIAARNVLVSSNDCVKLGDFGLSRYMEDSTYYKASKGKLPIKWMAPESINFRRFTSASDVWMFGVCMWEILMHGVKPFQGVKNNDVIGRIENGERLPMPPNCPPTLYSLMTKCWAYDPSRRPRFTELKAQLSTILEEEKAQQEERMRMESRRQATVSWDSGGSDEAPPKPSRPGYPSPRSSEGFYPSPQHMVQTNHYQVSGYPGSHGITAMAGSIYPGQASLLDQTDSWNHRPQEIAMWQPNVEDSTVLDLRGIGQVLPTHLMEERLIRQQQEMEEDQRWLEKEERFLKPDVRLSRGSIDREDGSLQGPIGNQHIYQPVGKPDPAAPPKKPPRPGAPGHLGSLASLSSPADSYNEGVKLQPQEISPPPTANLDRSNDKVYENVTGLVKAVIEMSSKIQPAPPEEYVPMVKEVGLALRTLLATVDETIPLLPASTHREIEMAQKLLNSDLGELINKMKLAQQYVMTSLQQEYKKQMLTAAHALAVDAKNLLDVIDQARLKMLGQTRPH

Test [1] deals with β6 integrin (human (endogenous in PC3)) (UniProt P18564).
Test [2] has as its target β1 integrin (human (endogenous in PC3)) (UniProt P05556).
Test [3] concerns the target BKCa, large conductance calcium activated potassium channel (human (endogenous in PC3)) (UniProt Q12791).

Results are given in words; binding and its absence hold for the method and conditions named. Binding seen in cells or lysates may run through a third protein. Some results given as binding are weak or reduced against the parent protein; the word gives no strength.

Take “BKCa, large conductance calcium activated potassium channel (from UniProt Q12791 1-1236)”: the binding result in test [1] and in test [2] was “binds weakly” in each case.

Take “focal adhesion kinase (FAK) (from UniProt Q05397 1-1052)”: the binding result in test [3] is “binds”.

For the origin of these results see PMC5130001.
